Some of the results follow.
Legend:
Assay in all cases: log2 fold change, soluble protein after heating vs DMSO (PISA); higher = thermal stabilisation; K562 cells, 10 uM, 30 min; active = over 0.2 and 3.5 SD of the protein, either way, in both replicates (recomputed)
[1] = compound: Cc1ccc(NC(=O)c2ccc(CN3CC[C@H](N(C)C)C3)c(C(F)(F)F)c2)cc1Nc1nccc(-c2cncnc2)n1 [bafetinib]
Summary of the method: (§1)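 K562 cells at 2×10^6 cells/mL were exposed to 10 μM compound for 30 min, then aliquots were heated for 3 min across 48°C-58°C, pooled, and extracted in PBS containing 0.5% NP-40 at 4°C. The supernatant after 21,000xg for 90 min was taken as soluble protein and measured by TMTpro 16plex LC-MS/MS with channel sums equalised. Thermal stability is reported relative to control samples, with values from duplicates. Fold changes are given on a log2 scale.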

Amino acid sequences for entries named in this document (tags omitted). A change or cut given only in a name is not applied to a line headed by its entry.
UniProt Q8IYW5, whole entry, looked up: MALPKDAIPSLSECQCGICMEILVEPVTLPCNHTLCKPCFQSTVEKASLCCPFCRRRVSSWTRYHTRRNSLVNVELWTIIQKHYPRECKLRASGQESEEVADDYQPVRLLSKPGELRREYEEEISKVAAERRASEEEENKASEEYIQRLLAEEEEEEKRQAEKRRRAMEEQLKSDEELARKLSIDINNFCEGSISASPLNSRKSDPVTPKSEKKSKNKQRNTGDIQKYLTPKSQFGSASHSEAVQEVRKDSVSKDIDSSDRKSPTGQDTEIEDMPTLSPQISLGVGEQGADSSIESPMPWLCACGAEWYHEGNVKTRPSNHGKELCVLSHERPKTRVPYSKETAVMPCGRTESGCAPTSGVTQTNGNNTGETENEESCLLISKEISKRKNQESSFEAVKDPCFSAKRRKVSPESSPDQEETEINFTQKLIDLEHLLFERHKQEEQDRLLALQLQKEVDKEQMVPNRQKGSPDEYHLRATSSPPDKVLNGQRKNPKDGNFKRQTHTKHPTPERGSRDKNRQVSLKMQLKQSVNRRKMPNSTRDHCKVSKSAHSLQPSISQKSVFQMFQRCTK
UniProt Q9H1K0: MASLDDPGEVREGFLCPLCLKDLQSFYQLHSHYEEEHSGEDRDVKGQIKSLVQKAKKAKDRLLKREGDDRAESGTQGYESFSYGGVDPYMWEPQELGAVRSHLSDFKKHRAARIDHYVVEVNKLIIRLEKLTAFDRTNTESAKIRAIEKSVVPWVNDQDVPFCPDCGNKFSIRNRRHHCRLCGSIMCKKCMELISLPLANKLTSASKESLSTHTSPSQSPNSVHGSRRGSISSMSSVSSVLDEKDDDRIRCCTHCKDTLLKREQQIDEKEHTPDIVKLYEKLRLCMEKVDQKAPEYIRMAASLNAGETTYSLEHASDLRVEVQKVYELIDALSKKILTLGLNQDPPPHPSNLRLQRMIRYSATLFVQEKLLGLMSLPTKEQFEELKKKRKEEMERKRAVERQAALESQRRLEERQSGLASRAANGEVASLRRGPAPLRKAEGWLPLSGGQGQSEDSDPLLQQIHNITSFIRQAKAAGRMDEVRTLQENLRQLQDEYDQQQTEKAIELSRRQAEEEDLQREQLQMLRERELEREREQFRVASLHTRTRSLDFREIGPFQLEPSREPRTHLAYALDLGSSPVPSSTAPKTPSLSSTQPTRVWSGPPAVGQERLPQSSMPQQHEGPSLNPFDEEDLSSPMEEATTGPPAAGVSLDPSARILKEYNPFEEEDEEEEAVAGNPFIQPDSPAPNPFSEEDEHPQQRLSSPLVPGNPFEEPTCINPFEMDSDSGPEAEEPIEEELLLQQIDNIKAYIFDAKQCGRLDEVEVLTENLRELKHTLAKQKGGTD
UniProt O00287: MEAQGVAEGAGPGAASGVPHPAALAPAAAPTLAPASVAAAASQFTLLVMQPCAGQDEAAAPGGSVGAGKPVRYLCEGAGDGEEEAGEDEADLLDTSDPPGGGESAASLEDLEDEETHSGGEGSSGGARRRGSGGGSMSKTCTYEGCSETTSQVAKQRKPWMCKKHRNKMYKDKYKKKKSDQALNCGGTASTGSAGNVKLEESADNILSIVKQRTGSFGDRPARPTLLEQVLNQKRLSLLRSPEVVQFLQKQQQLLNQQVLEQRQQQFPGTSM
UniProt Q9Y2P8: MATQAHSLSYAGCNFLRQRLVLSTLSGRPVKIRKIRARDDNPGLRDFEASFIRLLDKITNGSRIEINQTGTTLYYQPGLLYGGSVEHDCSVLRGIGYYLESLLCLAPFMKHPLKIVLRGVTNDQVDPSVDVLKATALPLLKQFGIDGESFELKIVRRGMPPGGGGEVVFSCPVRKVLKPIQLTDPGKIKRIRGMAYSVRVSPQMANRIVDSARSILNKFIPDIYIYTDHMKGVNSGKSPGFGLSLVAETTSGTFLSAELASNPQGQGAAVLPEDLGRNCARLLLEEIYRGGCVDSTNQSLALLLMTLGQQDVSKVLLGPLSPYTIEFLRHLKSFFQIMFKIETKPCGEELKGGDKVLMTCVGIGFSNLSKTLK
UniProt Q96GF1: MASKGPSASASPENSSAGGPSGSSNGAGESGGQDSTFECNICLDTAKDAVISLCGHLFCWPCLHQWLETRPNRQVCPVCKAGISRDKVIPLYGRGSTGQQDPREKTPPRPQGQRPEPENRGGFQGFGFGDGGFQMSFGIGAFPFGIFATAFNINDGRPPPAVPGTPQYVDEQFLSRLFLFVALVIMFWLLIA
UniProt Q8WVD3: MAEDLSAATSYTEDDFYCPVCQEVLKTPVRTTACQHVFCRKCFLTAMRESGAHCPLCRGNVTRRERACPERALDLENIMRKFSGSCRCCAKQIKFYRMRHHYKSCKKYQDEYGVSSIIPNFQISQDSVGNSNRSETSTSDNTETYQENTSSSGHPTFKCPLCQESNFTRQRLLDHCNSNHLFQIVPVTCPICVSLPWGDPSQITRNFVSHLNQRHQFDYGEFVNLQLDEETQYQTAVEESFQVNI
UniProt P62877, whole entry, looked up: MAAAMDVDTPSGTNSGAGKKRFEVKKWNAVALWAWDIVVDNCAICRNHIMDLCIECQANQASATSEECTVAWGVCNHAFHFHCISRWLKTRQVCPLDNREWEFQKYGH
UniProt Q9Y225: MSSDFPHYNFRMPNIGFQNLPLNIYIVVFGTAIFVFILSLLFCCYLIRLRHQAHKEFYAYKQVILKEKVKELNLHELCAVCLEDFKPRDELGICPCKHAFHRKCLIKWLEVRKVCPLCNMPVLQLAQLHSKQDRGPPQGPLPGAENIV
UniProt P34096: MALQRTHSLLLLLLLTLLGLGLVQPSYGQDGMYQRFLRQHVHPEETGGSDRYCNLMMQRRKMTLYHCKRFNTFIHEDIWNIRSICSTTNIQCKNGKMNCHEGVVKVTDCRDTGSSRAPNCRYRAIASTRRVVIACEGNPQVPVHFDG
UniProt Q99496: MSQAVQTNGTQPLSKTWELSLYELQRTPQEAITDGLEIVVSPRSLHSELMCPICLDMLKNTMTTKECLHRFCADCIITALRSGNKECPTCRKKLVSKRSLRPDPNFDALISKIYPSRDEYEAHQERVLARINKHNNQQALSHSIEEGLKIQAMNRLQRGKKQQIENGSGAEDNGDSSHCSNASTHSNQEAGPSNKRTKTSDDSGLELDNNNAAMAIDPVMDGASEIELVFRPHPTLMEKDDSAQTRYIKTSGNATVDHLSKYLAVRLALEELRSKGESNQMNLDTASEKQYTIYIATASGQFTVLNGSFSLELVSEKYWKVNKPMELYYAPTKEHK
UniProt Q6JBY9, whole entry, looked up: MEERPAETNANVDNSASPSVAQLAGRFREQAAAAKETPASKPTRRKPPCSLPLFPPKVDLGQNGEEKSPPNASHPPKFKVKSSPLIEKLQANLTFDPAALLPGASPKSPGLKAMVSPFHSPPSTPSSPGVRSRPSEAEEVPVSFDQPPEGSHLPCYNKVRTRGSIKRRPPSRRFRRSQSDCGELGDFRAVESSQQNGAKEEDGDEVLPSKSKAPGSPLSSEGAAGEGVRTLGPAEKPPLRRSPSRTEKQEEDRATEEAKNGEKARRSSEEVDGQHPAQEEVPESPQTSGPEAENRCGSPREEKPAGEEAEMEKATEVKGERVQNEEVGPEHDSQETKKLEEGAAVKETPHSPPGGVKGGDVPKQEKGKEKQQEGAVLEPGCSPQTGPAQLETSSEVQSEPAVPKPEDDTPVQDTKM
UniProt A6NEQ0: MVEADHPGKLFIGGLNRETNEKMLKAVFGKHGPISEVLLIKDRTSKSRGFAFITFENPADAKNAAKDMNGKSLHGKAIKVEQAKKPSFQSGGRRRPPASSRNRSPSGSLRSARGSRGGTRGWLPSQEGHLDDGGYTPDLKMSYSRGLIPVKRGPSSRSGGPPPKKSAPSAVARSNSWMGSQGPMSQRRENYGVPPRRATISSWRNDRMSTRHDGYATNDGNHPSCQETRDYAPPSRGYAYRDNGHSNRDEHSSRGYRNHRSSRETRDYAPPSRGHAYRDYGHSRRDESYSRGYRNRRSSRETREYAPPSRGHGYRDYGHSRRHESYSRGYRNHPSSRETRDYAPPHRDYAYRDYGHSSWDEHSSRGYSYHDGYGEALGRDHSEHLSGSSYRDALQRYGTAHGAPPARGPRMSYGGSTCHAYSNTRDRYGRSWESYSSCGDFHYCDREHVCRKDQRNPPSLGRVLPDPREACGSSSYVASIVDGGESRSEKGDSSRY
UniProt Q6NUM9: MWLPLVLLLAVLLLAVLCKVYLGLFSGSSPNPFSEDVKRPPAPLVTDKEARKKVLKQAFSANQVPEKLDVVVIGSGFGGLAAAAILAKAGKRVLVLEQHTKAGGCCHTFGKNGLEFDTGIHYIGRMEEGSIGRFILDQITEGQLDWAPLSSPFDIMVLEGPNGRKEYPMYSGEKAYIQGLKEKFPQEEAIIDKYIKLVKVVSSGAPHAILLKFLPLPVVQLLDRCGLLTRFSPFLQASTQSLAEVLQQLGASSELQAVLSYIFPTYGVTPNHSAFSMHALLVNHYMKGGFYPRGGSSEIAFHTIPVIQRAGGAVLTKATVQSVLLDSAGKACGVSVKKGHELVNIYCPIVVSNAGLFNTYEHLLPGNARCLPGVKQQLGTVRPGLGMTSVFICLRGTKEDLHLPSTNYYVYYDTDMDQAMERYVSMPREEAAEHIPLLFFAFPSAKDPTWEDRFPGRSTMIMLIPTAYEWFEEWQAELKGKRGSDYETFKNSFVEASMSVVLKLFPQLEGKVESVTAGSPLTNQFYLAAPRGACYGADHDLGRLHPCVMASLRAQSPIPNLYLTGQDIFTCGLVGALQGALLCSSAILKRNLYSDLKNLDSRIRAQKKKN
UniProt P82980: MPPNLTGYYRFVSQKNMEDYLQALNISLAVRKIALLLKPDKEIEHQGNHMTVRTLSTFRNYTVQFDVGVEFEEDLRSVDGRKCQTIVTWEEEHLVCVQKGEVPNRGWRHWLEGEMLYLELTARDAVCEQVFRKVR
UniProt Q9P260: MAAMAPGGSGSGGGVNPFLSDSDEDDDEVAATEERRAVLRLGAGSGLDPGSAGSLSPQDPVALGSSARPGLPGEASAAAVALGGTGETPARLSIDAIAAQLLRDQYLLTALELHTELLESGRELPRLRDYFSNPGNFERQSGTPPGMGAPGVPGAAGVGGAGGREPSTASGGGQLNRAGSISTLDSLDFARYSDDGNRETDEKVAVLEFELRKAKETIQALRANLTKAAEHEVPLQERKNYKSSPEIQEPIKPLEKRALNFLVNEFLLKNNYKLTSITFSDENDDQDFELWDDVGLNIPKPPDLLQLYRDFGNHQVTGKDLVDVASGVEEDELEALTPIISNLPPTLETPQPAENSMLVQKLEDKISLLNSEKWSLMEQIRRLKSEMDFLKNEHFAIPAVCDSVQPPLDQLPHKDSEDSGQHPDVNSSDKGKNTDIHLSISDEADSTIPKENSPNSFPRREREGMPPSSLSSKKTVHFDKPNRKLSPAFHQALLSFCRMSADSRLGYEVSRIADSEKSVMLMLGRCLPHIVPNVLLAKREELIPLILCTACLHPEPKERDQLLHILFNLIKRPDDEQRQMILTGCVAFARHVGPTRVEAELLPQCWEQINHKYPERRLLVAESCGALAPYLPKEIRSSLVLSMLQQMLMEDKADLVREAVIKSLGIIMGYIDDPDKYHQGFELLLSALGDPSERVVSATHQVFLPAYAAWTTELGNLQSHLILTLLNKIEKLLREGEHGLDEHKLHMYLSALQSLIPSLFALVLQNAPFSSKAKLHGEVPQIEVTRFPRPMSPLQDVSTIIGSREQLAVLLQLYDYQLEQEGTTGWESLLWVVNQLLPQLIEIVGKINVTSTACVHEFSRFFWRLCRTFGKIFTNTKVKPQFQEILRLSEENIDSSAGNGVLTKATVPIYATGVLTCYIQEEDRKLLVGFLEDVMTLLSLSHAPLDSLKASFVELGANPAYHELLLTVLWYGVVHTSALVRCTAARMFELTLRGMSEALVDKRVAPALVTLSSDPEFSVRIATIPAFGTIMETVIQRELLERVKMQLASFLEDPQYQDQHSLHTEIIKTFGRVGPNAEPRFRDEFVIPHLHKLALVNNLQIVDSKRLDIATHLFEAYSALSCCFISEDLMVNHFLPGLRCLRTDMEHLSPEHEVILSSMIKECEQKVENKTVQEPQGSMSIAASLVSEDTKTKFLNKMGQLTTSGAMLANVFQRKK
UniProt Q04206, whole entry, looked up: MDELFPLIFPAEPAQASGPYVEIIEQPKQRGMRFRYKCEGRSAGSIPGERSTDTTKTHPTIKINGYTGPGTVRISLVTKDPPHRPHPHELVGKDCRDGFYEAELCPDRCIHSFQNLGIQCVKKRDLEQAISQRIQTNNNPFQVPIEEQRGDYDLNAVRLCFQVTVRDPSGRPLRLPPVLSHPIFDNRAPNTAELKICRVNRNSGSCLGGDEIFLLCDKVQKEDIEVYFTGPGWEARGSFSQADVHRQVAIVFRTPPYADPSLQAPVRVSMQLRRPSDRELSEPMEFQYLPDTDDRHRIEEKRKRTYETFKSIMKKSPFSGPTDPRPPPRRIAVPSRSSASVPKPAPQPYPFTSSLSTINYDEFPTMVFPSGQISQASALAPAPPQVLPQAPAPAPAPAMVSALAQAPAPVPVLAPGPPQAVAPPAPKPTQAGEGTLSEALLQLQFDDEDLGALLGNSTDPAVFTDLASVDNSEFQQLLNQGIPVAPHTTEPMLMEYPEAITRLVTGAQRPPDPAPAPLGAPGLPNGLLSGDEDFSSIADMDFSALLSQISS

[2] = compound: Cc1cn(-c2cc(NC(=O)c3ccc(C)c(Nc4nccc(-c5cccnc5)n4)c3)cc(C(F)(F)F)c2)cn1 [nilotinib]
Summary of the method: as §1

[3] = compound: Cc1nc(Nc2n[nH]c3c2CN(C(=O)N[C@H](CN(C)C)c2ccccc2)C3(C)C)c2sccc2n1
Summary of the method: as §1

[4] = compound: Cc1nc(Nc2ncc(C(=O)Nc3c(C)cccc3Cl)s2)cc(N2CCN(CCO)CC2)n1 [dasatinib]
Summary of the method: as §1

[5] = compound: Cc1ncc(-c2ccnc(Nc3ccc(S(C)(=O)=O)cc3)n2)n1C(C)C
Summary of the method: as §1

[6] = compound: Cn1cc(-c2ccc3nnc(C(F)(F)c4ccc5ncccc5c4)n3n2)cn1
Summary of the method: as §1

[7] = compound: Cn1cncc1[C@@](N)(c1ccc(Cl)cc1)c1ccc2c(c1)c(-c1cccc(Cl)c1)cc(=O)n2C [tipifarnib]
Summary of the method: as §1

[8] = compound: FC(F)(F)c1ccc(/C=C/c2nc(COc3ccc(CCCCn4ccnn4)cc3)co2)cc1 [mubritinib]
Summary of the method: as §1

[9] = compound: Cc1cccc(CC(=O)N2CCc3c2ccc(-c2cn(C)c4ncnc(N)c24)c3F)n1
Summary of the method: as §1

[10] = compound: Cn1cc(-c2ccc3c(c2)CCN3C(=O)Cc2cccc(C(F)(F)F)c2)c2c(N)ncnc21
Summary of the method: as §1

Measured: log2 fold change

RNF168 (UniProt Q8IYW5)
inactive: [1] -0.022 | [2] -0.035 | [3] 0.082 | [4] -0.042 | [5] 0.022 | [6] 0.005 | [7] 0.02 | [8] 0.027

RBP4 (UniProt P02753)
inactive: [1] 0.213 | [9] 0.026 | [4] 0.33 | [10] 0.24 | [6] -0.115 | [8] -0.069

REPIN1 isoform 4 (UniProt Q9BWE0)
inactive: [1] 0 | [9] -0.022 | [2] 0.013 | [3] -0.014 | [4] 0.06 | [5] 0.024 | [10] -0.007 | [6] -0.03 | [7] -0.018 | [8] 0.005

RBSN (UniProt Q9H1K0)
inactive: [1] -0.111 | [9] 0.077 | [2] -0.026 | [3] -0.023 | [4] -0.169 | [5] -0.073 | [6] 0.054 | [7] -0.059

RFXAP (UniProt O00287)
inactive: [1] 0.017 | [2] 0.012 | [3] -0.015 | [4] 0.016 | [5] -0.047 | [10] -0.077 | [6] -0.093 | [7] 0.162 | [8] 0.033

RFC4 (UniProt P35249)
inactive: [1] -0.036 | [9] 0.056 | [2] -0.04 | [3] -0.025 | [4] -0.046 | [5] -0.001 | [10] 0.042 | [6] 0.046 | [7] -0.002 | [8] -0.012

RCL1 (UniProt Q9Y2P8)
inactive: [1] 0.216 | [9] 0.047 | [2] -0.07 | [3] 0.043 | [4] 0.074 | [5] 0.055 | [10] -0.258 | [6] -0.13 | [7] 0.138 | [8] -0.141

RNF185 (UniProt Q96GF1)
inactive: [1] 0.189 | [9] -0.037 | [2] -0.027 | [3] -0.001 | [5] -0.022 | [10] 0.089 | [6] 0.218 | [7] 0.045 | [8] 0.057

RHBDD2 isoform 2 (UniProt Q6NTF9)
inactive: [1] -0.026 | [9] -0.02 | [2] -0.259 | [3] 0.031 | [4] 0.029 | [5] -0.148 | [10] 0.016 | [8] 0.132

RNF138 (UniProt Q8WVD3)
inactive: [1] -0.012 | [9] -0.038 | [2] -0.015 | [3] -0.354 | [4] -0.192 | [5] -0.327 | [10] 0.094 | [7] -0.092 | [8] 0.031

RFFL (UniProt Q8WZ73)
inactive: [1] 0.079 | [2] -0.053 | [3] -0.106 | [4] -0.058 | [5] -0.12 | [10] -0.047 | [6] -0.004 | [7] -0.064 | [8] -0.119

RBX1 (UniProt P62877)
inactive: [1] 0.037 | [9] -0.018 | [2] -0.03 | [3] -0.015 | [4] 0.009 | [5] -0.039 | [10] 0.042 | [6] 0.03 | [7] 0.098 | [8] -0.014

RNF24 isoform 2 (UniProt Q9Y225)
inactive: [1] -0.114 | [9] -0.102 | [2] 0.134 | [3] 0.022 | [4] 0.269 | [5] 0.179 | [6] -0.044 | [7] 0.318

REL (UniProt Q04864)
active: [3] -0.438
inactive: [1] -0.185 | [9] 0.03 | [2] -0.094 | [4] -0.115 | [5] -0.018 | [10] 0.013 | [6] 0.059 | [7] -0.011 | [8] 0.034

RNF123 isoform 2 (UniProt Q5XPI4)
inactive: [1] -0.061 | [9] 0 | [2] 0.006 | [3] -0.112 | [4] -0.131 | [5] -0.047 | [10] 0.036 | [6] -0.036 | [7] -0.123 | [8] 0.111

RNASE4 (UniProt P34096)
inactive: [1] -0.075 | [9] -0.268 | [2] -0.086 | [3] 0.037 | [5] -0.014 | [10] 0.094 | [6] -0.017 | [7] -0.069 | [8] 0.044

RFC5 (UniProt P40937)
inactive: [1] -0.059 | [9] 0.004 | [2] -0.068 | [3] -0.032 | [4] -0.076 | [5] 0 | [10] 0.033 | [6] 0.01 | [7] -0.027 | [8] -0.021

RNF2 (UniProt Q99496)
inactive: [1] -0.102 | [9] 0.022 | [2] 0.065 | [3] -0.214 | [4] -0.106 | [5] 0.061 | [10] -0.005 | [7] -0.026 | [8] -0.031

RMND5A (UniProt Q9H871)
inactive: [1] 0.031 | [9] 0.019 | [2] -0.03 | [3] -0.027 | [4] -0.008 | [5] 0.008 | [10] -0.017 | [6] 0.003 | [7] 0.055 | [8] 0.012

RIC1 (UniProt Q4ADV7)
inactive: [1] -0.423 | [9] 0.219 | [2] 0.17 | [3] 0.025 | [4] -0.051 | [5] -0.02 | [6] -0.155 | [7] -0.027 | [8] 0.061

RCSD1 (UniProt Q6JBY9)
inactive: [1] 0.013 | [9] -0.101 | [2] 0.096 | [3] -0.111 | [4] 0.13 | [5] -0.009 | [10] -0.036 | [6] 0.003 | [7] 0.014 | [8] 0.042

RBMY1E (UniProt A6NEQ0)
inactive: [1] -0.041 | [9] 0.219 | [2] 0.009 | [3] -0.038 | [5] 0.026 | [10] 0.29 | [6] -0.164 | [7] -0.016 | [8] 0.192

RETSAT (UniProt Q6NUM9)
active: [5] 0.511
inactive: [1] -0.011 | [9] -0.034 | [2] 0.154 | [3] -0.076 | [4] -0.001 | [10] 0.045 | [6] -0.002 | [7] -0.052 | [8] 0.182

RNF141 (UniProt Q8WVD5)
inactive: [1] -0.09 | [9] -0.328 | [2] -0.064 | [3] -0.009 | [5] -0.281 | [6] -0.06 | [7] 0.003

RBP5 (UniProt P82980)
inactive: [1] 0.002 | [9] 0.197 | [2] 0.108 | [3] -0.02 | [4] 0.15 | [5] -0.001 | [10] 0.146 | [7] 0.075 | [8] 0.046

RING1 (UniProt Q06587)
inactive: [1] 0.004 | [9] 0.093 | [2] -0.062 | [3] -0.097 | [5] -0.014 | [10] 0.186 | [6] 0.013 | [7] 0.016 | [8] 0.001

RELCH isoform 2 (UniProt Q9P260)
inactive: [1] -0.092 | [9] -0.176 | [2] -0.087 | [3] -0.084 | [4] -0.209 | [5] -0.147 | [10] 0.05 | [6] 0.222 | [8] -0.006

Quoted at random: two entries already listed, in no set order.
RING1 (UniProt Q06587)
inactive: [1] 0.004 | [9] 0.093 | [2] -0.062 | [3] -0.097 | [5] -0.014 | [10] 0.186 | [6] 0.013 | [7] 0.016 | [8] 0.001

RBP5 (UniProt P82980)
inactive: [1] 0.002 | [9] 0.197 | [2] 0.108 | [3] -0.02 | [4] 0.15 | [5] -0.001 | [10] 0.146 | [7] 0.075 | [8] 0.046

Following part

RELA (UniProt Q04206)
active: [3] -0.295
inactive: [1] -0.04 | [9] 0.006 | [2] -0.023 | [5] -0.031 | [10] 0.04 | [6] -0.047 | [7] -0.04 | [8] 0.044

RBM48 isoform 2 (UniProt Q5RL73)
inactive: [1] 0.118 | [9] -0.012 | [2] 0.13 | [3] -0.006 | [5] -0.034 | [10] 0.047 | [6] -0.457 | [7] 0.127

RBP1 isoform 3 (UniProt P09455)
inactive: [9] -0.309 | [4] 0.178

RFX7 (UniProt Q2KHR2)
inactive: [4] 0.054

RBM7 (UniProt Q9Y580)
inactive: [9] -0.034 | [2] -0.131 | [3] 0.224 | [4] -0.328 | [5] 0.006 | [10] -0.015 | [6] -0.027 | [7] 0.025 | [8] 0.028

— the supplement of paper PMC10849652
